Here are results for 2 substances from article PMC6451101.

The chains behind the UniProt entries cited, without tags or fusion partners.
UniProt P35226: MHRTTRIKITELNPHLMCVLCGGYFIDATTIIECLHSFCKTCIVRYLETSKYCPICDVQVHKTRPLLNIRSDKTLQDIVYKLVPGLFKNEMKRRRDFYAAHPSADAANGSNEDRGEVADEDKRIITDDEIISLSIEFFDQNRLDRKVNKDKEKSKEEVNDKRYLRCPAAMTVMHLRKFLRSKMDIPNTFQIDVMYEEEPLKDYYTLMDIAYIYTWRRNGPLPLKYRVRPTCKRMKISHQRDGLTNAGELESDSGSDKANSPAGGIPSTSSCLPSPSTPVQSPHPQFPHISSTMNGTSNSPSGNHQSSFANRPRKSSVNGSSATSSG
UniProt P03203: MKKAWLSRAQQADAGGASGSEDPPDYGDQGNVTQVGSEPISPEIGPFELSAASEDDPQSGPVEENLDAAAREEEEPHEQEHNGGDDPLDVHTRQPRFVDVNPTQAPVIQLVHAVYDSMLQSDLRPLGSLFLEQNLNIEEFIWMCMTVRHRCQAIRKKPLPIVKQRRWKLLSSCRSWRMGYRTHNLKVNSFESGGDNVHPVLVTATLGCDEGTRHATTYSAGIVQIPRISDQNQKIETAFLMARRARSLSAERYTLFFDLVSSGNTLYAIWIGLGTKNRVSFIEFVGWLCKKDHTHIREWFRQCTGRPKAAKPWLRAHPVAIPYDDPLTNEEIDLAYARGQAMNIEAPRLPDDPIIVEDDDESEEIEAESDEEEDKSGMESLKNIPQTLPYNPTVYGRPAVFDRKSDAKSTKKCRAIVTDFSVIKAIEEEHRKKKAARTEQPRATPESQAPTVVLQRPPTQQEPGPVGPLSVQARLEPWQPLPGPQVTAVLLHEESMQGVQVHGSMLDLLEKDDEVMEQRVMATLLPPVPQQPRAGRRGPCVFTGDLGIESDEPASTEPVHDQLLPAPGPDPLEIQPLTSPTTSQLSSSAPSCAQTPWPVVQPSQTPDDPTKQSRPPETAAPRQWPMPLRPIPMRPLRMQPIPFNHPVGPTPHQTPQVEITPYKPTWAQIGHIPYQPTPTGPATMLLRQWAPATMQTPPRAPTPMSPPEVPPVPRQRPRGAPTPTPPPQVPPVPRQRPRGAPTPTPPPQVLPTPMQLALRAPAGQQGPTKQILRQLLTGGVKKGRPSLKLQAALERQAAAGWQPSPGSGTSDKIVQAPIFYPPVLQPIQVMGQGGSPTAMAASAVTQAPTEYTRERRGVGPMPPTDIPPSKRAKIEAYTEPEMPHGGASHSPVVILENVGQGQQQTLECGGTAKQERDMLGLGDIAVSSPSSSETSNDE
UniProt P03204: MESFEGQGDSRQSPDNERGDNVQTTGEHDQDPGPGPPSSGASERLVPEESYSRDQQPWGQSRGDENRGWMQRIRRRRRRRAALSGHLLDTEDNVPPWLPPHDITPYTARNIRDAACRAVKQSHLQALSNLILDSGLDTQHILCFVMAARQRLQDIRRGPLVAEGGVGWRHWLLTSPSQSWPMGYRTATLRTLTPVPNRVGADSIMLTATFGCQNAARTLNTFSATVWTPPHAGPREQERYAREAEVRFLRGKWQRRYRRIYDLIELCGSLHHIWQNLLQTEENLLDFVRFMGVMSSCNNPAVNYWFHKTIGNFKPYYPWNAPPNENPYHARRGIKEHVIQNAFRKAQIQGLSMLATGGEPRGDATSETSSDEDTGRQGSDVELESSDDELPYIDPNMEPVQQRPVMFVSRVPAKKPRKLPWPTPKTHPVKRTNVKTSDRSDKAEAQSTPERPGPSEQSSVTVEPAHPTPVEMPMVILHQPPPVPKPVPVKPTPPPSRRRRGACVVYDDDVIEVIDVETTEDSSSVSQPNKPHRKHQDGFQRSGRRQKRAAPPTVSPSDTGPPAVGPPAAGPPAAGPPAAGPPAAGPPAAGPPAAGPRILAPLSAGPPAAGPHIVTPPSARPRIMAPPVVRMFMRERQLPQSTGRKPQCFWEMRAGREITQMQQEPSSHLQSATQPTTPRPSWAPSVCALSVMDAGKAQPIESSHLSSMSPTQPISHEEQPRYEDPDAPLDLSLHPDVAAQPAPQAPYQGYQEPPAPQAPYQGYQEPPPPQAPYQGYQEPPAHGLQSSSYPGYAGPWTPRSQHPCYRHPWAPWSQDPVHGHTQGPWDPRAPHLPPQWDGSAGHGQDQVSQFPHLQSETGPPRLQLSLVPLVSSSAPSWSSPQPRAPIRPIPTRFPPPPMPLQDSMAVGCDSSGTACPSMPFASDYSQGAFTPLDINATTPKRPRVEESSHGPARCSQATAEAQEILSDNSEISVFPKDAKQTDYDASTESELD

These are yes or no findings as the source states them, for the method shown. In cells and extracts the contact can be indirect. Some results given as binding are weak or reduced against the parent protein; the word gives no strength.

The assay has as its target BMI1 (human (endogenous in LCL)) (UniProt P35226). The experiment in a line: co-IP; rabbit anti-BMI1 antibody (Bethyl A301-694A, 2 ug) used to immunoprecipitate BMI1 from extracts of LCLs infected with B95.8 EBV; rabbit anti-FLAG antibody as negative control; precipitates western blotted for EBNA3A, EBNA3B, EBNA3C; more than three independent experiments. Background: A western blot detects proteins with antibodies after separation by electrophoresis.

With “Epstein-Barr virus nuclear antigen EBNA3B (from UniProt P03203 1-938)”, the binding entry was “no binding”.

Consider “Epstein-Barr virus nuclear antigen EBNA3C (from UniProt P03204 1-992)”, for which the binding entry is recorded as “binds”.
